Experimental data taken from patent US9486449B2, “Cancer therapy” (priority 2007, dated 2016).
Counter-ions that a name gives are not always drawn. At least one structure is not confirmed: it was looked up by name or label, or the drawing left a doubt. Some results were stated once for a whole list of compounds, not compound by compound.

Assays:
[1] = tested on: MDA-MB-231 breast cancer cells; test: Survival of MDA-MB-231 cells after single application
[2] = tested on: human epithelial cells MCF-10A; test: Cell cycle and proliferation of normal epithelial MCF-10A cells
[3] = tested on: mouse embryonic fibroblasts; test: Cell cycle of mouse embryonic fibroblasts; settings: 10 μM PJ-34
Parp-1+/+ MEF = test: Cytotoxicity in Parp-1+/+ (normal) MEF (ATP luminescence); assay type: cell-based, mouse; settings: 72 hours with PJ-34
cardiomyocytes = test: Effect on quiescent cells: cardiomyocytes; assay type: cell-based; settings: 10 to 30 μM PJ-34, 100 μM Tiq-A, 50 μM Phen
MCF-7 xenotransplants = MCF-7 xenotransplants in nude mice, PJ-34 by subcutaneous osmotic pump; assay type: in vivo, mouse
[4] = tested on: Human colon cancer DLD1 cells; test: Eradication of colon cancer DLD1 cells; assay type: cell-based; settings: 20 μM PJ-34, 96 hours, applied once 24 h after seeding
[5] = tested on: MDA-MB-231 xenotransplants; test: MDA-MB-231 xenotransplants in nude mice, PJ-34 by subcutaneous osmotic pump; assay type: in vivo, mouse
Method: Xenotransplants were developed in female CD-1 nu/nu 5 to 6 weeks old. MCF-7 and MDA 231 cells were injected subcutaneously, about 10^7 MCF-7 or MDA231 cells in 150 μl of PBS and 150 μl of Martigel Basement Membrane Matrix Becton Dickinson, Bedford, Mass., USA; In Israel Bactolab Diagnostics). In mice treated with PJ-34, injection was adjacent to subcutaneous osmotic pumps dripping PJ-34 by a slow release. The mice were maintained under specific pathogen-free conditions with access to mouse chow and water ad libitum. […]. Subcutaneous implantation of these pumps was performed before injection by a veterinarian (Dr. Kastel David). All the experiments with nude mice conform to the Guide for the Care and Use of Laboratory Animals published by the NIH (publication No. 85-23, revised 1996). Approval was granted by the Israeli Ministry of Health ethics review board in the Tel-AvivUniversity (M08033).
In vivo experiments were carried out in nude female mice (nu/nu) injected subcutaneously with MCF-7 or MDA-MB-231 cells (FIG. 15). […]. In the control nude mice, pumps contained only PBS, or pumps were not implanted. Each mouse was injected subcutaneously with approximately 10^7 MCF-7 or MDA-MB-231 cells dispersed in Matrigel. Tumors developed within 6 to 7 weeks in the control mice injected with MCF-7 cells and within 10 days in the control mice injected with MDA231 cells. […]

MCF-7 = test: Flow cytometry cell cycle analysis, MCF-7; assay type: cell-based, human; settings: 10 μM PJ-34; observed from 6 hours, not relieved within 120 hours
[6] = tested on: Ovarian Cancer HeyAB Cells; test: Eradication of ovarian cancer HeyAB cells; assay type: cell-based, human; settings: 20 μM PJ-34, 96 hours, applied once 24 h after seeding
brain cortical neurons = test: Effect on quiescent cells: brain cortical neurons; assay type: cell-based; settings: 10 to 30 μM PJ-34, 100 μM Tiq-A, 50 μM Phen
[7] = tested on: Parp-1−/− mouse embryonic fibroblasts (MEF); test: Cytotoxicity and spindles in Parp-1−/− MEF (ATP luminescence); assay type: cell-based; settings: 72 hours with PJ-34
[8] = tested on: MCF-7 breast cancer cells; test: Survival of MCF-7 cells after single application (cell count, microscopy); assay type: cell-based, human
Method: Cells were cultured in 6-wells multi-dish plates (Nunc Denmark). MCF-7 and MDA231 cells were cultured in 6-wells multi-dish plates (Nunc Denmark). MCF-7 and MDA231 cells were maintained in a medium containing DMEM (cat #01055-1A), 10% Horse serum (cat #04-124-1A), 1% L-Glutamine (cat #03-020-1B), and 1% Pen-Strep Ampho (cat #03-033-1B) (Gibco, Invitrogene, purchased from Rhenium, Jerusalem 91035 Israel.
MCF-7 cells were seeded (about 50,000/well) in 6-well plates. […]. […] […].
The effect of PARP inhibitors on MCF-7 and MDA-MB-231 human breast cancer cells was examined (cells were seeded in about 500,000 cells/[…] well in six-well plates). […]. The damage was irreversible. […]. […] […].

α-tubulin with γ-tubulin = test: Co-immunoprecipitation of α-tubulin with γ-tubulin in cancer cells; assay type: cell-based
[9] = tested on: Human Lung Cancer Cells H1299; test: Eradication of lung cancer H1299 cells; assay type: cell-based; settings: 20 μM PJ-34, 96 hours, applied once 24 h after seeding
MDA231 cells = test: Flow cytometry cell cycle analysis, MDA231; assay type: cell-based, human; settings: 10 μM PJ-34; observed from 6 hours, not relieved within 120 hours
Mouse fetal fibroblasts = test: Proliferation and survival of non-malignant fibroblasts
[10] = tested on: Pancreatic Cancer Cells, PANC1; test: Eradication of pancreatic cancer PANC1 cells; assay type: cell-based, human; settings: 20 μM PJ-34, 96 hours, applied once 24 h after seeding
[11] = tested on: Lymphoid Leukemia REH Cells; test: Eradication of lymphoid leukemia REH cells; assay type: cell-based, human; settings: 20 μM PJ-34, 96 hours, applied once 24 h after seeding

In the case of `NC(=O)c1ccc(I)c([N+](=O)[O-])c1` [BSI-201, reference compound], the “survival rate relative to untreated cells” value ([1]; 72 hours, other PARP1 inhibitors at the indicated concentrations (FIG. 22)) is reported as “above 95%”.

For `CN(C)CC(=O)Nc1ccc2[nH]c(=O)c3ccccc3c2c1` [PJ-34, N-(6-oxo-5,6-dihydro-phenanthridin-2-yl)-N,N-dimethylacetamide, HCl], the “cell death accompanying arrest in MCF-10A” value ([2]; 10 μM PJ-34) was “not accompanied by cell death”, the “G2/M arrest in MCF-10A” value ([2]; 10 μM PJ-34, arrest at 6 hours, none after 18 hours) was “only temporarily arrested” and the “proliferation of MCF-10A cells” value ([2]; 14 days with 10 μM PJ-34) was “not significantly reduced”. For the same compound, the “cell death accompanying arrest in MEF” value [3] was “not accompanied by cell death”, the “G2/M cell-cycle arrest in MEF” value ([3]; arrest detected after 6 hours) was “overcame the cell-cycle arrest” and the “effect on normal MEF” value (Parp-1+/+ MEF) was “hardly affected”. For the same compound, the “impairment of quiescent cells” value (cardiomyocytes) was “not impaired at all”, the tumor development (MCF-7 xenotransplants; Example 6, PJ-34 2 mM in 200 μl PBS in osmotic pump, 14 days release, 7 weeks, n=3) was “no visible MCF-7 tumors developed” and the tumor development (MCF-7 xenotransplants; Example 11, PJ-34 2 mM in 100 μl PBS, osmotic pump 14 days, during 4 months after injection) was “no visible tumors developed”. For the same compound, the eradication of cells [4] was “completely eradicated”, the tumor development ([5]; PJ-34 2 mM in 100 μl PBS, osmotic pump 14 days, during the 10 weeks after injection) was “no visible tumors developed” and the “mice with tumors detected” value ([5]; after 10 weeks, PJ-34 treated) was “two of the five”. The “cell cycle effect (flow cytometry)” value (MCF-7) was “G2/M arrest and cell death”, the eradication of cells [6] was “completely eradicated” and the “impairment of quiescent cells” value (brain cortical neurons) was “not impaired at all”. For the same compound, the MDA231 eradication ([1]; 20-30 μM PJ-34, applied once, 72 to 96 hours) was “completely eradicated”, the “eradication of Parp-1−/− cells compared with Parp-1+/+” value [7] was “more eradicated” and the MCF-7 survival ([8]; 48 to 72 hours, 10 μM PJ-34, Tiq-A 100 μM, Phen 50 μM) was “did not survive”. The “MCF-7 cancer cells destroyed” value ([8]; single application of 5, 7.5, 10 and 20 μM PJ-34, 24 hours after seeding, within 48 hours) was “destroyed”, the “co-immunoprecipitation of α-tubulin with γ-tubulin” value (α-tubulin with γ-tubulin) was “interferes” and the eradication of cells [9] was “completely eradicated”. The “cell cycle effect (flow cytometry)” value (MDA231 cells) was “G2/M arrest and cell death”, the fibroblast survival (Mouse fetal fibroblasts; repeated applications of 10 μM PJ-34) was “survived the treatment” and the “retardation of fibroblast proliferation” value (Mouse fetal fibroblasts; total of 20 μM PJ-34 (10 μM applied twice, 24 and 72 h after seeding)) was “about two-to three fold”. For the same compound, the eradication of cells [10] was “completely eradicated” and the eradication of cells [11] was “completely eradicated”.
